No constants are given. Whether binding was seen depends on the method and setting. Binding seen in cells or lysates may run through a third protein. Binding can be weak; no strength is given.
Biological target: Dvl2, exogenously expressed in HEK293 cells (wild type)
Assay: co-IP; exogenous proteins expressed in HEK293 cells; for Dvl2-DPR1 with and without overexpressed Cftr

binding: binds
B1: Dapper1 (DPR1) in HEK293 cells (protein, UniProt Q9NYF0 1-836)
chain: MKPSPAGTAKELEPPAPARGEQRTAEPEGRWREKGEADTERQRTRERQEATLAGLAELEYLRQRQELLVRGALRGAGGAGAAAPRAGELLGEAAQRSRLEEKFLEENILLLRKQLNCLRRRDAGLLNQLQELDKQISDLRLDVEKTSEEHLETDSRPSSGFYELSDGASGSLSNSSNSVFSECLSSCHSSTCFCSPLEATLSLSDGCPKSADLIGLLEYKEGHCEDQASGAVCRSLSTPQFNSLDVIADVNPKYQCDLVSKNGNDVYRYPSPLHAVAVQSPMFLLCLTGNPLREEDRLGNHASDICGGSELDAVKTDSSLPSPSSLWSASHPSSSKKMDGYILSLVQKKTHPVRTNKPRTSVNADPTKGLLRNGSVCVRAPGGVSQGNSVNLKNSKQACLPSGGIPSLNNGTFSPPKQWSKESKAEQAESKRVPLPEGCPSGAASDLQSKHLPKTAKPASQEHARCSAIGTGESPKESAQLSGASPKESPSRGPAPPQENKVVQPLKKMSQKNSLQGVPPATPPLLSTAFPVEERPALDFKSEGSSQSLEEAHLVKAQFIPGQQPSVRLHRGHRNMGVVKNSSLKHRGPALQGLENGLPTVREKTRAGSKKCRFPDDLDTNKKLKKASSKGRKSGGGPEAGVPGRPAGGGHRAGSRAHGHGREAVVAKPKHKRTDYRRWKSSAEISYEEALRRARRGRRENVGLYPAPVPLPYASPYAYVASDSEYSAECESLFHSTVVDTSEDEQSNYTTNCFGDSESSVSEGEFVGESTTTSDSEESGGLIWSQFVQTLPIQTVTAPDLHNHPAKTFVKIKASHNLKKKILRFRSGSLKLMTTV
